The assay in a line: qHTS Assay for Modulators of Lamin A Splicing. The note with it: HeLa LMNA splicing GFP/RFP minigene ratio, 48 h. In outline: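 S3 HeLa cells stably expressing lamin A-EGFP splicing minigene plus DsRed2, 600 cells/well, 48 h compound exposure at 37C. Laser-scanning cytometry; analysed as GFP (500-530 nm)/RFP (575-640 nm) total intensity ratio; 0.5% DMSO vehicle.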
Background: qHTS replaces the single test concentration by a dilution series.

The mark [1] stands for this setting: measured here: RFP viability control channel.
Where [2] appears, read: measured here: GFP splicing reporter channel.

The list shows a part of the results. Shown are side measurements of this screen, not its main read-out; they come without a call. Most of these compounds were active or inconclusive in the main read-out, so they are no random draw. Potencies come from curve fits of mixed quality, noted in brackets.

The term AC50 denotes the midpoint of the concentration-response curve, whichever way the signal moves. Take `CC(O)CNc1nc2c(c(=O)n(C)c(=O)n2C)n1Cc1cccc(Br)c1` (stereo not given): the AC50 under setting [1] is 7.08 µM [rising, partial curve]. As for `OCCN1CCN(C(=S)Nc2ccc(SC(F)F)cc2)CC1`, the AC50 was 35.5 µM [falling, single point] under setting [2] and 31.6 µM [falling, partial curve] under setting [1]. With `CN(C)S(=O)(=O)c1cccc(C(=O)NC(=S)N(CCC#N)Cc2cccnc2)c1`, the AC50 under setting [2] is 35.5 µM [rising, single point] and the AC50 under setting [1] is 0.0112 µM [falling, full curve, poor fit].

Turning to `COC(=O)c1sccc1S(=O)(=O)N(CC(=O)NCc1ccc(C)cc1)c1ccccc1`, the AC50 under setting [2] was 2.82 µM [falling, partial curve, poor fit] and the half-maximal activity concentration (AC50) under setting [1] is 0.0141 µM [falling, full curve, poor fit]. For the molecule `CCCCC(=O)Nc1cccc(-c2cn3ccsc3n2)c1`, the half-maximal activity concentration (AC50) was 8.91 µM [rising, partial curve, poor fit] under setting [2] and 7.94 µM [rising, partial curve] under setting [1]. `Cc1ccc(S(=O)(=O)NCC(=O)N/N=C/c2ccc(Cl)cc2Cl)cc1`: under setting [1], the AC50 was 12.6 µM [rising, partial curve, poor fit]. As to `Cc1nn(C)c(C)c1CN(C)S(=O)(=O)c1ccc2ccccc2c1`, the AC50 was 0.891 µM [rising, partial curve] under setting [2] and 0.562 µM [rising, full curve] under setting [1]. For `CS/C(=C\[N+](=O)[O-])Nc1ccc(OC(F)(F)F)cc1`, under setting [1], the concentration at half-maximal activity (AC50) is 0.00794 µM [falling, full curve, poor fit]. Same read-out and setting: the result for `CCOC(=O)N1CCN(S(=O)(=O)c2ccc(F)c(C(=O)Nc3ccc(C(C)C)cc3)c2)CC1` reads 15.8 µM [rising, single point]; that for `COC(=O)CCS(=O)(=O)c1nc(-c2ccccc2)cc(C(F)(F)F)n1`, 12.6 µM [rising, partial curve].

For the molecule `COc1ccc(NS(=O)(=O)c2ccc(NC(=O)c3ccc(N(C)S(C)(=O)=O)cc3)cc2)c(OC)c1`, the AC50 is 3.16 µM [rising, partial curve, poor fit] under setting [2] and 2.82 µM [rising, full curve] under setting [1]. Take `CCCc1cc(=O)[nH]c(SCc2csc(-c3ccccc3)n2)n1`: the AC50 reads like this: under setting [2], 35.5 µM [rising, single point]; under setting [1], 31.6 µM [rising, single point].

In the case of `c1ccc(-c2nnc(CSc3nnc(-c4ccncc4)n3Cc3ccco3)o2)cc1`, the AC50 under setting [2] is 14.1 µM [rising, single point] and the half-maximal activity concentration (AC50) under setting [1] is 14.1 µM [rising, single point]. For the molecule `CCCc1nc2c(c(=O)c3ccccc3n2C)c(=O)n1C1CCCCCC1`, under setting [1], the half-maximal activity concentration (AC50) was 25.1 µM [rising, single point]. As for `O=C(c1ccccc1)N1CCC(O)(c2cccnc2)CC1`, the AC50 reads like this: under setting [2], 3.98 µM [rising, single point]; under setting [1], 6.31 µM [rising, single point]. Consider `CCOC(=O)c1sc2ccccc2c1OC(=O)c1ccccc1OC`, for which the half-maximal activity concentration (AC50) under setting [1] is 0.282 µM [rising, full curve, poor fit].

Take `CCN(CC)c1ncnc2sc(C(=O)N3CCN(c4ccc(OC)cc4)CC3)c(C)c12`: under setting [1], the AC50 was 35.5 µM [rising, single point].

On to `O=C(Cc1ccccc1)c1c[nH]c(C(=O)NCCCn2ccnc2)c1`, for which the half-maximal activity concentration (AC50) under setting [2] was 6.31 µM [rising, single point]. On to `CCOC(=O)c1cccc(NC(=O)c2ccc(N(C)C)cc2)c1`, for which the half-maximal activity concentration (AC50) under setting [1] was 11.2 µM [rising, partial curve, poor fit]. Same read-out and setting: to `Cc1c(C(=O)N(C)Cc2ccccc2)sc2nc(-c3ccc(F)cc3)cn12` belongs 7.08 µM [rising, partial curve]; to `Cc1cc(NC(=O)CCc2ccc(S(=O)(=O)N3CCOCC3)cc2)n(-c2ccccc2)n1`, 35.5 µM [rising, single point]. The same measure, in the same setting: to `Cc1ccc(-c2cn3c(n2)sc2cc(C(=O)NC4CCCCCC4)ccc23)cc1` belongs 0.0158 µM [falling, full curve].

With `CCOC(=O)N1CCN(C(=O)C2CCN(Cc3cccc(OCc4ccccc4)c3)CC2)CC1`, the half-maximal activity concentration (AC50) runs as follows: under setting [2], 31.6 µM [rising, single point]; under setting [1], 35.5 µM [rising, single point].

With `Cc1nc2c(-c3ccccc3)c(C)nn2c(N)c1-c1ccccc1`, the AC50 under setting [1] was 35.5 µM [rising, single point].

As to `O=c1[nH]c(-c2ccccn2)cc2ccccc12`, the AC50 under setting [1] was 35.5 µM [falling, single point]. Take `CCCc1nnc(NC(=O)c2c(O)c3c([nH]c2=O)CCCC3)s1`: under setting [1], the half-maximal activity concentration (AC50) was 0.0501 µM [rising, full curve, poor fit].

Take `CCOc1cc(-c2cc(-c3ccc(C)o3)nc(N)c2C#N)ccc1O`: under setting [1], the AC50 is 12.6 µM [rising, single point]. As to `O=S(Cc1ccc(Br)cc1)Cc1nnc(SCc2ccc(Cl)cc2)n1-c1ccccc1` (stereo not given), the AC50 was 15.8 µM [falling, single point] under setting [2] and 25.1 µM [falling, single point] under setting [1]. As for `c1ccc(Cn2c(Sc3nnnn3-c3ccccc3)nnc2-c2ccccc2)cc1`, the AC50 under setting [1] is 31.6 µM [rising, single point]. Consider `Oc1ccccc1/C=N/NC(=S)NC1CC2CC1C1C=CCC21` (stereo not given), for which the AC50 under setting [2] is 22.4 µM [falling, single point] and the AC50 under setting [1] was 10 µM [falling, partial curve]. Consider `CC(=O)O/N=C/c1c(N2CCOCC2)n(C)c2ccccc12`, for which the AC50 was 15.8 µM [falling, single point] under setting [2] and 22.4 µM [falling, partial curve, poor fit] under setting [1].

For `CCOc1ccccc1NC1=CC(=O)CC(c2ccccc2)C1` (stereo not given), the concentration at half-maximal activity (AC50) runs as follows: under setting [2], 15.8 µM [falling, single point]; under setting [1], 35.5 µM [falling, single point].

`NC(=S)N/N=C\c1ccc(-c2cccc(Cl)c2Cl)o1`: the AC50 reads like this: under setting [2], 5.01 µM [falling, partial curve]; under setting [1], 6.31 µM [falling, full curve]. As to `COc1cc(/C=C2\SC(=S)N(Nc3ccccc3)C2=O)cc(OC)c1OC`, the concentration at half-maximal activity (AC50) under setting [1] is 14.1 µM [falling, single point]. Take `O=[N+]([O-])c1nn(-c2ccc3c(c2)OCCO3)n(O)c1=NCc1ccc(F)cc1Cl`: the AC50 under setting [2] was 0.0631 µM [rising, full curve, poor fit].

The values are drawn from PubChem BioAssay AID1487 (National Center for Advancing Translational Sciences (NCATS), 2009).
